# PubChem BioAssay AID504804 – Drosophila RNAi Screening Center | 2011
# Screen: 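Knock-downs shielding fly cells from apoptosis caused by DNA damage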 (primary screen)
# System: Drosophila Kc cells
# Reagents: long dsRNA against Drosophila genes, 0.5 µg dsRNA per well
# Duration: 96 h (48 h knock-down, then 48 h drug)
# Challenge: doxorubicin 5 µg/ml for 48 h, added 48 h after dsRNA
# Measured: 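Viability measured as cellular ATP by luminescence after 48 h knock-down then 48 h doxorubicin at 5 µg/ml; unnormalised plate counts for each replicate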
# Direction: raw ATP luminescence: higher = more viable cells, protection from doxorubicin
# Rule for the call: 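Active when both duplicate wells lie at least 2 SD above the plate mean and protection is confirmed by rescreening and independent dsRNAs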
# In all, the deposit lists about 19,000 reagents; below is a random part of those with a known target gene and a result. In the full data, 47 (0.25%) were called active. 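Signals are raw, not normalised; exact z-scores behind calls not deposited; actives needed confirmation, so some wells reaching 2 SD are inactive.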 Unmarked entries are inactive. No sequences are given here.
Gene,amplicon,"raw ATP luminescence, replicate 1","raw ATP luminescence, replicate 2"
CG10809,DRSC09802,69333,58667
CG15036,DRSC17968,47410,53230
Pus1 (Pseudouridine synthase 1),DRSC15548,72720,79700
klu (klumpfuss),DRSC11357,1.05e5,79793
CG14642,DRSC12228,20270,21803
mldr (mulder),DRSC18100,30640,43110
CG2604,DRSC12313,57303,58623
CG10139,DRSC05972,49767,49770
alrm (astrocytic leucine-rich repeat molecule),DRSC14436,51110,50300
coil (coilin),DRSC07242,75230,58483
CG30122,DRSC06776,45690,71157
CG6420,DRSC16035,36710,40950
CG15370,DRSC18042,2.93e5,3.03e5
pip (pipe),DRSC11382,69500,68720
Sid (Stress induced DNase),DRSC16588,72280,46800
Sec20 (Secretory 20),DRSC12295,76733,52960
dve (defective proventriculus),DRSC04680,39297,56070
CG34050 (retired record),DRSC09067,22673,27237
CG5162,DRSC19935,2.97e5,2.92e5
Had2 (beta Hydroxy acid dehydrogenase 2),DRSC05971,46213,50170
Rpp30 (RNaseP protein p30),DRSC00320,1.03e5,61447
CG13390,DRSC02261,39990,67960
CG11327,DRSC02146,32063,34837
CG5326,DRSC13568,2.01e5,2.11e5
CG5326,DRSC15770,54430,43960
CG9903,DRSC20213,2.54e5,2.36e5
CG4496,DRSC02753,23540,38963
ldd (lipid droplet defective),DRSC20558,3.14e5,3.04e5
Mhc (Myosin heavy chain),DRSC03367,40510,83090
dcma (decima),DRSC00246,3.36e5,3.05e5
dcma (decima),DRSC00338,30210,36917
CG18628,DRSC10328,81207,80807
Ir84a (Ionotropic receptor 84a),DRSC12510,62150,59563
CG10920,DRSC17765,44050,41150
CG18809,DRSC19818,2.40e5,2.55e5
CG13344,DRSC06378,66260,56267
CG9776,DRSC12127,21270,32283
wmd (wing morphogenesis defect),DRSC04436,71783,74067
kermit,DRSC06074,68353,52963
CG31125,DRSC13684,2.15e5,2.33e5
Rop (Ras opposite),DRSC08693,37763,40820
CG9555,DRSC03264,42023,66327
MED20 (Mediator complex subunit 20),DRSC03463,40157,75377
CCT3 (Chaperonin containing TCP1 subunit 3),DRSC16602,47873,46383
CG8461,DRSC16424,44207,26707
CG7367,DRSC03049,44530,58113
Lgr1 (Leucine-rich repeat-containing G protein-coupled receptor 1),DRSC16675,46630,37750
CenG1A (Centaurin gamma 1A),DRSC02538,69370,76813
CenG1A (Centaurin gamma 1A),DRSC03505,85150,82160
CenG1A (Centaurin gamma 1A),DRSC03506,84030,83690
salto,DRSC06291,68637,58883
gpp (grappa),DRSC12515,55433,62027
gpp (grappa),DRSC12516,44597,48117
beat-Ia (beaten path Ia),DRSC03489,56193,71420
mars,DRSC06656,55027,45143
rictor (rapamycin-insensitive companion of Tor),DRSC20071,3.25e5,3.16e5
Su(var)2-10 (Suppressor of variegation 2-10),DRSC07721,66823,65327
